According to patent US20250127845A1, “MEDICINAL USES OF OLIGOPEPTIDES IN COMBINATION WITH AN ANTIANDROGEN” (HBC IMMUNOLOGY INC., priority 2022, published 2025):
Several values for one entry are separate records, joined by “and”; a condition that tells them apart may be missing. Equal entries are not always repeated.

Tests used:
Format in all cases: cell-based, human
VCaP cells = assay: Clonogenic assay, VCaP cells
Protocol: (§1) Test Solutions. SPH test solutions were prepared by adding 10 μg, 40 μg, or 160 μg of SPH powder to 1 ml of DMEM containing 0.3% FBS+2% DMSO and sonicating for 10 min just prior to use. Bicalutamide, referred to herein as BIC, (Sigma-Aldrich, Catalog No. B9061) test solutions were prepared by adding 0.43 or 4.3 μg to 1 ml (1 μM and 10 μM) of DMEM containing 0.3% FBS+2% DMSO and sonicating for 10 min just prior to use. Enzalutamide, referred to herein as ENZ (Intas Pharmaceuticals, India), test solutions were prepared by serial dilution of a 1 mM stock solution (3% DMS in water) into culture medium.
Cell Culture. The C4 subline (CRL-3313™, RRID: CVCL 4783), which was derived from the human prostate carcinoma cell line LNCaP, was obtained from ATCC (Manassas, VA). C4, which is referred to herein as LNCaP, is an exemplary androgen receptor-positive (AR+ve) cell line that has an epithelial-like morphology and a low metastatic potential. The PC-3 cell line (CRL-1435, RRID: CVCL_0035) was obtained from ATCC (Manassas, VA). […]
(§2) Clonogenic Assay. […] The colonies were allowed to develop over 12 days, stained with crystal violet and automatically counted using a TC20 Automated Cell Counter (Bio Rad, Hercules, CA). […] Relative plating efficiencies were expressed as percentages relative to the plating efficiency of untreated cells and reported as the relative percent colony survival value. […]

[1] = tested on: transferrin receptor 1 (TFRC) mRNA; assay: TFRC gene expression by qRT-PCR in VCaP cells; details: 1.4 μM ENZ alone
Protocol: (§3) Gene Expression. LNCaP, PC-3, VCaP, and VCaP-EnzR cells were seeded in 24-well plates and maintained in RPMI1640 medium supplemented with 2 mmol/L L-glutamine. 100 U/mL penicillin, […] streptomycin, and 10% heat-inactivated fetal bovine serum at 37° C. in a humidified 5% CO2 atmosphere. […] SPH absent wells (DMSO 0.04%) were used as the negative control. All experiments were run in triplicate.
(§4) Samples were studied for expression of the ferritin heavy chain 1 (FTH1) and transferrin receptor 1 ([…]) genes. Total RNA was extracted from cell pellets using the UPzol reagent (Biotechrabbit), followed by DNAse treatment (DNAse TURBO) according to the manufacturers' protocols. Complementary DNA (cDNA) was synthesized with the High Capacity cDNA Reverse Transcription Kit (Applied Biosystems) using random hexamers. Gene expression levels were measured by qRT-PCR.
(§5) 1 μl of cDNA (corresponding to 50 ng of reverse transcribed RNA) was amplified by Qpcr (QuantStudio™ 6 Flex Real-Time PCR System), using TaqMan™ Universal PCR Master Mix (Catalog No. 4304437) and a TaqMan™ assay (Roche Molecular Systems, Inc., Pleasanton, CA). FTH1 and TFRC gene expression was estimated relative to expression of the housekeeping gene, beta-actin (ACTB), following the standard formula: 2-ΔCt. TaqMan probe IDs used include: (i) FTH1, Hs01694011_s1; (ii) TFRC, Hs00951083_m1; and (iii) ACTB, Hs01060665_g1. […]

[2] = tested on: ferritin heavy chain 1 (FTH1) mRNA; assay: FTH1 gene expression by qRT-PCR in VCaP cells; details: 1.4 μM ENZ alone
Protocol: as §3, §4, §5

[3] = tested on: transferrin receptor 1 (TFRC) mRNA; assay: TFRC gene expression by qRT-PCR in VCaP-EnzR cells; details: 47 μM ENZ alone
Protocol: as §3, §4, §5

VCaP-EnzR cells = assay: Clonogenic assay, VCaP-EnzR cells
Protocol: as §1
Cell Culture. The C4 subline (CRL-3313™, RRID: CVCL 4783), which was derived from the human prostate carcinoma cell line LNCaP, was obtained from ATCC (Manassas, VA). C4, which is referred to herein as LNCaP, is an exemplary androgen receptor-positive (AR+ve) cell line that has an epithelial-like morphology and a low metastatic potential. The PC-3 cell line (CRL-1435, RRID: CVCL_0035) was obtained from ATCC (Manassas, VA). PC-3 is an exemplary androgen receptor-negative (AR−ve) cell line that has an epithelial morphology and a high metastatic potential. The Vertebral-Cancer of the Prostate (VCaP) cell line was obtained from Sigma-Aldrich, USA (Catalog No. 06020201). VCaP is a human cell line with an epithelial morphology that was established from a metastatic prostate cancer lesion (Korenchuk et al., In Vivo, 15(2):163˜168, 2001). VCaP cells are androgen receptor-positive and express high levels of prostate-specific antigen. The VCaP-EnzR cell line was also obtained from Sigma-Aldrich, USA (Catalog No. SCC421). […]
as §2

[4] = tested on: ferritin heavy chain 1 (FTH1) mRNA; assay: FTH1 gene expression by qRT-PCR in VCaP-EnzR cells; details: 47 μM ENZ alone
Protocol: as §3, §4, §5

CNC(=O)c1ccc(N2C(=S)N(c3ccc(C#N)c(C(F)(F)F)c3)C(=O)C2(C)C)cc1F [ENZ, enzalutamide, reference compound]
IC50 (VCaP cells; Homo sapiens, VCaP clonogenic assay, read-out: IC50 of enzalutamide): 1.4 µM
relative percent of cell survival (VCaP cells; VCaP, 0.1 μM ENZ alone): 77%
TFRC Fold Change (single replicates) [1]: 1.1 and 1.0 (2×)
TFRC Fold Change, Average [1]: 1.03
FTH1 Fold Change (single replicates) [2]: 1.1 (2×) and 1.0
FTH1 Fold Change, Average [2]: 1.07
TFRC Fold Change (single replicates) [3]: 1.1 and 1.0 and 1.3
TFRC Fold Change, Average [3]: 1.13
IC50 (VCaP-EnzR cells; Homo sapiens, VCaP-ENZR, read-out: IC50 of enzalutamide): 47 µM
relative percent of cell survival (VCaP-EnzR cells; VCaP-ENZR, 10 μM ENZ alone): 64%
relative survival (VCaP-EnzR cells; VCaP-EnzR, 47 μM enzalutamide monotreatment): 52%
FTH1 Fold Change (single replicates) [4]: 0.7 and 0.8 (2×)
FTH1 Fold Change, Average [4]: 0.77
